Experimental findings from paper PMC6071992 are described below.

By UniProt entry, the sequences of proteins in these tests, tags left out.
UniProt Q13951: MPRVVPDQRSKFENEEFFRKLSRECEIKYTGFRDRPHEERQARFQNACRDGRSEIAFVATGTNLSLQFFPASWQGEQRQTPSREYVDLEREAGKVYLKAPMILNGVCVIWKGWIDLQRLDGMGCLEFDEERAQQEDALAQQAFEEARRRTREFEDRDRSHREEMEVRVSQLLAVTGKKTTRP
UniProt P42582: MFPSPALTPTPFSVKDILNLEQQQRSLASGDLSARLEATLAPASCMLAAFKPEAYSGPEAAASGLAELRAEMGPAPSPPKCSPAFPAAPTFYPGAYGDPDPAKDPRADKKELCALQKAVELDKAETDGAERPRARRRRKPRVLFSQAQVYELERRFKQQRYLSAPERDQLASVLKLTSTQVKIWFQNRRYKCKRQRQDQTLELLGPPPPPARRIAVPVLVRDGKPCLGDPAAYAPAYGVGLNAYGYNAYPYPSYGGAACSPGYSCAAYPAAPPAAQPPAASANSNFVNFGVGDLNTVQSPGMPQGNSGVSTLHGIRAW

These are yes or no findings as the source states them, for the method shown. For some assays here: Binding seen in cells or lysates may run through a third protein. Some entries that bind do so weakly or less than the wild type. Tags and fused reporters may be left off the sequences shown.

For test [1], the target named is T1, GST-TBX18 C-terminal region (aa 336-613) (mouse) (UniProt Q9EPZ6).
T1 sequence: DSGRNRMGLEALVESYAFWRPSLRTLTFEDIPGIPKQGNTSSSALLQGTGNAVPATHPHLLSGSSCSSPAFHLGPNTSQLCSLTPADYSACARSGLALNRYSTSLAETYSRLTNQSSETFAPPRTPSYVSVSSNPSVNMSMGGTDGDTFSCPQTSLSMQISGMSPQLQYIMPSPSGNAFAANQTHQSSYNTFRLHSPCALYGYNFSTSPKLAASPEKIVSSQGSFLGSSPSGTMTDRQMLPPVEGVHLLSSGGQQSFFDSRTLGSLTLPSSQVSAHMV
The experiment in a line: pull-down; GST-TBX18 domain fusion proteins on glutathione beads incubated 2 h with 20 to 40 ul reticulocyte lysate with in vitro translated 35S-labelled proteins; washed 3 times with pull-down buffer; SDS-PAGE and autoradiography; only the target purified.

Test [2] deals with T2, GST-TBX18 T-box (aa 148-345) (mouse) (UniProt Q9EPZ6).
T2 sequence: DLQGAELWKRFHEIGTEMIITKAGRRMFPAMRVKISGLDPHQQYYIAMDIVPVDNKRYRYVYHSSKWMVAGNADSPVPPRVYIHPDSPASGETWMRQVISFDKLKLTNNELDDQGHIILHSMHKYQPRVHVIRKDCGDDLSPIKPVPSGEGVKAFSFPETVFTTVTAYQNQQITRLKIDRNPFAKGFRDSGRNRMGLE
The test is described as above.

The target in test [3] is T2, GST-TBX18 T-box (aa 148-345) (mouse). The experiment in a line: pull-down; GST-TBX18 domain fusion proteins on glutathione beads incubated 2 h with NP-40 extracts of 293 cells transfected with MYC- or HA-tagged candidates; washed 3 times with pull-down buffer (20 mM HEPES pH 7.9, 100 mM NaCl, 10 mM KCl, 5 mM MgCl2, 0.5 mM EDTA, 5% glycerol, 0.05% Triton X-100, 1 mM DTT); Western blot against the tags; only the target purified.

In test [4] the target is T3, HA-tagged full-length TBX18 protein (mouse) (UniProt Q9EPZ6).
T3 sequence: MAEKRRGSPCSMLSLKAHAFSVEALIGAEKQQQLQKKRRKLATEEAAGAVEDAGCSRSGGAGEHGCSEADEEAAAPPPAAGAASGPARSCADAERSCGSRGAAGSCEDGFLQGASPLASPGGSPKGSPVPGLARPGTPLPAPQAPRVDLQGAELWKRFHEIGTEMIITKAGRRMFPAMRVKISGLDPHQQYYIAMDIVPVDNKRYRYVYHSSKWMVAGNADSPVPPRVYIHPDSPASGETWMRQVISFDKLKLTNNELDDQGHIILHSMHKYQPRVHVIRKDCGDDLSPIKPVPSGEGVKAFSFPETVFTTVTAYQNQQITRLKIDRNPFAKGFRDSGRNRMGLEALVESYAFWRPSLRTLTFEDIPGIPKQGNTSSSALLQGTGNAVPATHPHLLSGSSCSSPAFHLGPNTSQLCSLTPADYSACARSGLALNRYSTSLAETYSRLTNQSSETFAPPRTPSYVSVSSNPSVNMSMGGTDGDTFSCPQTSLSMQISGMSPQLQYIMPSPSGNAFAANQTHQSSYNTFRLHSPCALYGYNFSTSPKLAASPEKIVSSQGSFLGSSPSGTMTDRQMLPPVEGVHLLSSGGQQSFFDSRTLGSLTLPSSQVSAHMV
The experiment in a line: nuclear recruitment assay (immunofluorescence); modified assay: 293 cells co-transfected with full-length (nuclear) TBX18 and a candidate that lies outside the nucleus; recruitment of the candidate into the nucleus read by immunofluorescence against the tags.

In test [5] the target is T1, GST-TBX18 C-terminal region (aa 336-613) (mouse). The experiment in a line: pull-down; GST-TBX18 domain fusion proteins on glutathione beads incubated 2 h with NP-40 extracts of 293 cells transfected with MYC- or HA-tagged candidates; washed 3 times with pull-down buffer (20 mM HEPES pH 7.9, 100 mM NaCl, 10 mM KCl, 5 mM MgCl2, 0.5 mM EDTA, 5% glycerol, 0.05% Triton X-100, 1 mM DTT); Western blot against the tags; only the target purified. For orientation: A western blot detects proteins with antibodies after separation by electrophoresis.

Test [6] has as its target T4, GST-TBX18 N-terminal region (aa 1-157) (mouse) (UniProt Q9EPZ6).
T4 sequence: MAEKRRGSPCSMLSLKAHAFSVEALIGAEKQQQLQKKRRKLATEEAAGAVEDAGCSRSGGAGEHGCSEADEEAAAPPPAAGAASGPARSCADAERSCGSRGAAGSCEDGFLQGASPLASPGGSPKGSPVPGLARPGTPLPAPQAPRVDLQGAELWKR
Described as above.

In test [7] the target is T4, GST-TBX18 N-terminal region (aa 1-157) (mouse). The experiment in a line: pull-down; GST-TBX18 domain fusion proteins on glutathione beads incubated 2 h with 20 to 40 ul reticulocyte lysate with in vitro translated 35S-labelled proteins; washed 3 times with pull-down buffer; SDS-PAGE and autoradiography; only the target purified.

In the case of “in vitro translated 35S-labelled CBFB (from UniProt Q13951 1-182)”, the figures for the binding entry in test [1] and in test [2] were “binds weakly” and “binds”, respectively.

On to “in vitro translated 35S-labelled NKX2.5 (from UniProt P42582 1-318)”, for which the binding result in test [2] is “binds”.

With “HA-tagged NKX2.5 (from UniProt P42582 1-318)”, in test [3], the binding entry is on record as “binds”.

“MYC-tagged CBFB (from UniProt Q13951 1-182)”: the binding entry in test [4], in test [5], in test [6] and in test [3] was “binds” each time.

In the case of “HA-tagged CHD7 (from UniProt Q9P2D1 1-2997)”, the binding result in test [6] and in test [3] was “binds” throughout.

B1: in vitro translated 35S-labelled MAP9 (protein, UniProt Q49MG5 1-647)
chain: MSDEVFSTTLAYTKSPKVTKRTTFQDELIRAITARSARQRSSEYSDDFDSDEIVSLGDFSDTSADENSVNKKMNDFHISDDEEKNPSKLLFLKTNKSNGNITKDEPVCAIKNEEEMAPDGCEDIVVKSFSESQNKDEEFEKDKIKMKPKPRILSIKSTSSAENNSLDTDDHFKPSPRPRSMLKKKSHMEEKDGLEDKETALSEELELHSAPSSLPTPNGIQLEAEKKAFSENLDPEDSCLTSLASSSLKQILGDSFSPGSEGNASGKDPNEEITENHNSLKSDENKENSFSADHVTTAVEKSKESQVTADDLEEEKAKAELIMDDDRTVDPLLSKSQSILISTSATASSKKTIEDRNIKNKKSTNNRASSASARLMTSEFLKKSSSKRRTPSTTTSSHYLGTLKVLDQKPSQKQSIEPDRADNIRAAVYQEWLEKKNVYLHEMHRIKRIESENLRIQNEQKKAAKREEALASFEAWKAMKEKEAKKIAAKKRLEEKNKKKTEEENAARKGEALQAFEKWKEKKMEYLKEKNRKEREYERAKKQKEEETVAEKKKDNLTAVEKWNEKKEAFFKQKEKEKINEKRKEELKRAEKKDKDKQAINEYEKWLENKEKQERIERKQKKRHSFLESEALPPWSPPSRTVFAKVF
modifications: 35S-labelled methionine/cysteine
With B1, in test [2], the binding entry was “binds”.

B2: in vitro translated 35S-labelled HAUS8 (protein, UniProt Q9BT25 1-410)
chain: MADSSGRGAGKPATGPTNSSSAKKKDKRVQGGRVIESRYLQYEKKTTQKAPAGDGSQTRGKMSEGGRKSSLLQKSKADSSGVGKGDLQSTLLEGHGTAPPDLDLSAINDKSIVKKTPQLAKTISKKPESTSFSAPRKKSPDLSEAMEMMESQTLLLTLLSVKMENNLAEFERRAEKNLLIMCKEKEKLQKKAHELKRRLLLSQRKRELADVLDAQIEMLSPFEAVATRFKEQYRTFATALDTTRHELPVRSIHLEGDGQQLLDALQHELVTTQRLLGELDVGDSEENVQVLDLLSELKDVTAKKDLELRRSFAQVLELSAEASKEAALANQEVWEETQGMAPPSRWYFNQDSACRESGGAPKNTPLSEDDNPGASSAPAQATFISPSEDFSSSSQAEVPPSLSRSGRDLS
modifications: 35S-labelled methionine/cysteine
With B2, the binding entry in test [7] and in test [2] was “binds” in each case.

B3: CHD7-3, amino acid residues 1533-2380, in vitro translated (domain or fragment, UniProt Q9P2D1 1533-2380)
chain: KWAKKAELDIDALNGRNNLVIDTPRVRKQTRLYSAVKEDELMEFSDLESDSEEKPCAKPRRPQDKSQGYARSECFRVEKNLLVYGWGRWTDILSHGRYKRQLTEQDVETICRTILVYCLNHYKGDENIKSFIWDLITPTADGQTRALVNHSGLSAPVPRGRKGKKVKAQSTQPVVQDADWLASCNPDALFQEDSYKKHLKHHCNKVLLRVRMLYYLRQEVIGDQADKILEGADSSEADVWIPEPFHAEVPADWWDKEADKSLLIGVFKHGYEKYNSMRADPALCFLERVGMPDAKAIAAEQRGTDMLADGGDGGEFDREDEDPEYKPTRTPFKDEIDEFANSPSEDKEESMEIHATGKHSESNAELGQLYWPNTSTLTTRLRRLITAYQRSYKRQQMRQEALMKTDRRRRRPREEVRALEAEREAIISEKRQKWTRREEADFYRVVSTFGVIFDPVKQQFDWNQFRAFARLDKKSDESLEKYFSCFVAMCRRVCRMPVKPDDEPPDLSSIIEPITEERASRTLYRIELLRKIREQVLHHPQLGERLKLCQPSLDLPEWWECGRHDRDLLVGAAKHGVSRTDYHILNDPELSFLDAHKNFAQNRGAGNTSSLNPLAVGFVQTPPVISSAHIQDERVLEQAEGKVEEPENPAAKEKCEGKEEEEETDGSGKESKQECEAEASSVKNELKGVEVGADTGSKSISEKGSEEDEEEKLEDDDKSEESSQPEAGAVSRGKNFDEESNASMSTARDETRDGFYMEDGDPSVAQLLHERTFAFSFWPKDRVMINRLDNICEAVLKGKWPVNRRQMFDFQGLIPGYTPTTVDSPLQKRSFAELSMVGQASISGSEDI
modifications: 35S-labelled methionine/cysteine
Consider B3, for which the values for the binding entry in test [7] and in test [2] were “binds weakly” and “binds”, respectively.

B4: in vitro translated 35S-labelled B9D2 (protein, UniProt Q9BPU9 1-175)
chain: MAEVHVIGQIIGASGFSESSLFCKWGIHTGAAWKLLSGVREGQTQVDTPQIGDMAYWSHPIDLHFATKGLQGWPRLHFQVWSQDSFGRCQLAGYGFCHVPSSPGTHQLACPTWRPLGSWREQLARAFVGGGPQLLHGDTIYSGADRYRLHTAAGGTVHLEIGLLLRNFDRYGVEC
modifications: 35S-labelled methionine/cysteine
Consider B4, for which the binding result in test [1] and in test [2] was “binds” throughout.
